The list shows only some results of the screen, not a fair sample: it gathers tests that were run many times, whatever their T/C, doses with no T/C, and many T/C values between a quarter and a half above the control. Other doses and runs of a compound stand elsewhere. T/C: endpoint of the treated group in % of that of the vehicle group. Some doses have a count of surviving animals in place of a T/C: the source holds a T/C of zero for them, seemingly a mark for toxic or unscored doses. Some survivor counts are full or nearly so, which does not show that the dose was tolerated: the source hardly ever lists a survival T/C far under the control, and the zero likely stands for such cases as well. Survivors were counted at the toxicity check, usually on the fifth day, unless a day is given; later deaths do not show. Schedules are NCI's codes, taken here to give the interval after Q, in days (D) or hours (H), and the number of doses after X. Some schedules carry Z or #; the key to these is not given. For survival time, the PubChem record calls one and a half times the control and up active, and a quarter to a half above the control has no call in these data; cut-offs in other NCI protocols can differ. Some entries hold several experiments; the values are given in rising order. Some T/C values carry the count of animals alive at the toxicity check (mostly the fifth day); without a count, all were alive then.
Tested on: L1210 leukemia ip in BDF1 mice, survival T/C
Assay: NCI In Vivo Anticancer Drug Screen. Data for tumor model L1210 Leukemia (intraperitoneal) in B6D2F1 (BDF1) mice
Settings: higher T/C = longer survival
[1] = T/C endpoint: mean survival time, dose: 637.0 mg/kg/injection, schedule: Q01DX001 (ip), vehicle: saline with Tween-80
[2] = T/C endpoint: mean survival time, dose: 800.0 mg/kg/injection, schedule: Q## X024 (ip), vehicle: other
[3] = T/C endpoint: mean survival time, dose: 956.0 mg/kg/injection, schedule: Q01DX001 (ip), vehicle: saline with Tween-80

In the case of `NC(=S)N/N=C/c1ccc(O)cn1`, the survivor count (T/C endpoint: mean survival time, dose: 200.0 mg/kg/injection, schedule: Q01DX009 (ip), vehicle: saline with Tween-80) is reported as 10 of 10, the T/C (T/C endpoint: mean survival time, dose: 200.0 mg/kg/injection, schedule: Q01DX009 (oral), vehicle: other) is reported as 142 % of control and the T/C (T/C endpoint: mean survival time, dose: 200.0 mg/kg/injection, schedule: Q01DX015 (ip), vehicle: carboxymethylcellulose (CMC)) is reported as 126 % of control [5 of 6 alive]. The survivor count (T/C endpoint: mean survival time, dose: 200.0 mg/kg/injection, schedule: Q03HX024 (ip), vehicle: alkali diluted with saline) was 6 of 10, the T/C (T/C endpoint: mean survival time, dose: 200.0 mg/kg/injection, schedule: Q## X003 (ip), vehicle: other) was 140 % of control and the T/C (T/C endpoint: mean survival time, dose: 300.0 mg/kg/injection, schedule: Q01DX001 (ip), vehicle: other) was 127 % of control. For the same molecule, the T/C (T/C endpoint: mean survival time, dose: 300.0 mg/kg/injection, schedule: Q01DX001 (ip), vehicle: saline, evaluated on day 7) was 137 % of control, the T/C (T/C endpoint: mean survival time, dose: 300.0 mg/kg/injection, schedule: Q01DX001 (ip), vehicle: saline, evaluated on day 63) was 138 % of control and the T/C (T/C endpoint: mean survival time, dose: 300.0 mg/kg/injection, schedule: Q01DX005 (ip), vehicle: alkali diluted with saline) was 140 % of control. The T/C (T/C endpoint: mean survival time, dose: 300.0 mg/kg/injection, schedule: Q01DX005 (ip), vehicle: other, evaluated on day 30) was 172, 206, 216 % of control, the T/C (T/C endpoint: mean survival time, dose: 300.0 mg/kg/injection, schedule: Q01DX005 (ip), vehicle: other, evaluated on day 40) was 280 % of control [9 of 10 alive] and the survivor count (T/C endpoint: mean survival time, dose: 300.0 mg/kg/injection, schedule: Q01DX005 (iv), vehicle: other) was 0 of 5. The T/C (T/C endpoint: mean survival time, dose: 300.0 mg/kg/injection, schedule: Q01DX009 (ip), vehicle: alkali diluted with saline) was 147 % of control, the T/C (T/C endpoint: mean survival time, dose: 300.0 mg/kg/injection, schedule: Q01DX009 (ip), vehicle: other) was 140 % of control and the survivor count (T/C endpoint: mean survival time, dose: 300.0 mg/kg/injection, schedule: Q03HX008 (ip), vehicle: alkali diluted with saline) was 6 of 10. The survivor count (T/C endpoint: mean survival time, dose: 300.0 mg/kg/injection, schedule: Q03HX016 (ip), vehicle: alkali diluted with saline) was 4 of 10, the T/C (T/C endpoint: mean survival time, dose: 300.0 mg/kg/injection, schedule: Q## X002 (ip), vehicle: other) was 140 % of control and the T/C (T/C endpoint: mean survival time, dose: 400.0 mg/kg/injection, schedule: Q04DX003 (ip), vehicle: alkali diluted with saline) was 135 % of control. For the same molecule, the T/C (T/C endpoint: mean survival time, dose: 500.0 mg/kg/injection, schedule: Q01DX001 (ip), vehicle: saline) was 144 % of control, the T/C (T/C endpoint: mean survival time, dose: 600.0 mg/kg/injection, schedule: Q01DX001 (ip), vehicle: other) was 133 % of control and the T/C (T/C endpoint: mean survival time, dose: 600.0 mg/kg/injection, schedule: Q01DX001 (ip), vehicle: saline, evaluated on day 7) was 140 % of control. The T/C (T/C endpoint: mean survival time, dose: 600.0 mg/kg/injection, schedule: Q01DX001 (ip), vehicle: saline, evaluated on day 63) was 142 % of control, the survivor count (T/C endpoint: mean survival time, dose: 600.0 mg/kg/injection, schedule: Q01DX005 (ip), vehicle: alkali diluted with saline) was 3 of 10 and the survivor count (T/C endpoint: mean survival time, dose: 600.0 mg/kg/injection, schedule: Q01DX009 (ip), vehicle: alkali diluted with saline) was 3 of 10. For the same molecule, the T/C (T/C endpoint: mean survival time, dose: 600.0 mg/kg/injection, schedule: Q## X002 (ip), vehicle: other) was 143 % of control, the T/C [1] was 128 % of control and the survivor count [1] was 10 of 10. For the same molecule, the survivor count (T/C endpoint: mean survival time, dose: 800.0 mg/kg/injection, schedule: Q03HX024 (ip), vehicle: clinical formulation) was 4 of 10, the survivor count (T/C endpoint: mean survival time, dose: 800.0 mg/kg/injection, schedule: Q03HX024 (ip), vehicle: other) was 7 of 10 and the survivor count (T/C endpoint: mean survival time, dose: 800.0 mg/kg/injection, schedule: Q04DX003 (ip), vehicle: alkali diluted with saline) was 5 of 10. The T/C (T/C endpoint: mean survival time, dose: 800.0 mg/kg/injection, schedule: Q## X016 (oral), vehicle: other) was 137 % of control, the T/C [2] was 141 % of control [9 of 10 alive] and the survivor count [2] was 6 of 10. For the same molecule, the T/C [3] was 140 % of control, the survivor count [3] was 10 of 10 and the survivor count (T/C endpoint: mean survival time, dose: 1200.0 mg/kg/injection, schedule: Q01DX001 (ip), vehicle: alkali diluted with saline) was 0 of 10. For the same molecule, the survivor count (T/C endpoint: mean survival time, dose: 1200.0 mg/kg/injection, schedule: Q08DX002 (ip), vehicle: alkali diluted with saline) was 0 of 10, the survivor count (T/C endpoint: mean survival time, dose: 1600.0 mg/kg/injection, schedule: Q04DX003 (ip), vehicle: alkali diluted with saline) was 0 of 10 and the T/C (T/C endpoint: mean survival time, dose: 1600.0 mg/kg/injection, schedule: Q## X003 (ip), vehicle: other) was 126 % of control [9 of 10 alive]. For the same molecule, the survivor count (T/C endpoint: mean survival time, dose: 2400.0 mg/kg/injection, schedule: Q01DX001 (ip), vehicle: alkali diluted with saline) was 0 of 10, the survivor count (T/C endpoint: mean survival time, dose: 2400.0 mg/kg/injection, schedule: Q08DX002 (ip), vehicle: alkali diluted with saline) was 0 of 10 and the T/C (T/C endpoint: mean survival time, dose: 2400.0 mg/kg/injection, schedule: Q## X008 (ip), vehicle: other) was 141 % of control [8 of 9 alive]. The T/C (T/C endpoint: median survival time, dose: 10.0 mg/kg/injection, schedule: Q03HX024 (ip), vehicle: other) was 140 % of control, the T/C (T/C endpoint: median survival time, dose: 10.0 mg/kg/injection, schedule: Q03HX024 (sc), vehicle: other) was 130 % of control and the T/C (T/C endpoint: median survival time, dose: 50.0 mg/kg/injection, schedule: Q01DX009 (sc), vehicle: other) was 140 % of control. The T/C (T/C endpoint: median survival time, dose: 75.0 mg/kg/injection, schedule: Q01DX009 (ip), vehicle: water, evaluated on day 5) was 142 % of control, the T/C (T/C endpoint: median survival time, dose: 75.0 mg/kg/injection, schedule: Q01DX009 (ip), vehicle: water, evaluated on day 22) was 144 % of control and the T/C (T/C endpoint: median survival time, dose: 200.0 mg/kg/injection, schedule: Q01DX009 (ip), vehicle: other) was 130 % of control. The T/C (T/C endpoint: median survival time, dose: 200.0 mg/kg/injection, schedule: Q01DX009 (sc), vehicle: other) was 140 % of control, the T/C (T/C endpoint: median survival time, dose: 200.0 mg/kg/injection, schedule: Q04DX003 (sc), vehicle: other) was 125 % of control and the T/C (T/C endpoint: median survival time, dose: 300.0 mg/kg/injection, schedule: Q01DX009 (ip), vehicle: other) was 127 % of control. The survivor count (T/C endpoint: median survival time, dose: 400.0 mg/kg/injection, schedule: Q01DX009 (ip), vehicle: other) was 6 of 8, the survivor count (T/C endpoint: median survival time, dose: 400.0 mg/kg/injection, schedule: Q01DX009 (sc), vehicle: other) was 8 of 8 and the T/C (T/C endpoint: median survival time, dose: 500.0 mg/kg/injection, schedule: Q01DX001 (ip), vehicle: saline) was 145 % of control. The survivor count (T/C endpoint: median survival time, dose: 800.0 mg/kg/injection, schedule: Q04DX003 (ip), vehicle: other) was 0 of 8 and the survivor count (T/C endpoint: median survival time, dose: 800.0 mg/kg/injection, schedule: Q04DX003 (sc), vehicle: other) was 3 of 8.
